Test results reported in PubChem BioAssay AID2685 (National Center for Advancing Translational Sciences (NCATS), 2010).
The list shows a part of the results. The main result of the screen is listed elsewhere. These columns were measured beside it and carry no call. Compounds called inactive in the main read-out are mostly missing here. Words in brackets tell the shape of the fitted curve; partial curves, single points and poor fits give uncertain potencies.

Experiment: qHTS Assay for Lipid Storage Modulators in Drosophila S3 Cells;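 for cell number change: cells counted by Cell Tracker Red CMTPX staining in the red channel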
Settings: BODIPY lipid droplet fluorescence, 18-24 h; for cell number change: measured here: cell count max response, cells fed with added oleic acid
How it was run: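 Drosophila S3 cells loaded with oleic acid (400 uM, as added) and compounds at several concentrations; lipid droplets imaged by 488-nm laser-scanning cytometry, 500–530 nm intensity and object ratio to cell channel. Percent activity normalized to 20 uM Triacsin C.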

[1] = measured here: cell number channel AC50, cells fed with added oleic acid
[2] = measured here: lipid fluorescence (Fed channel) AC50, cells fed with added oleic acid

SMILES	cell number change [%]	AC50 [1]	AC50 [2]
CC1CCCN(C(=S)Nc2ccc(S(=O)(=O)N3CCCCC3)cc2)C1 (stereo unspecified)	14.3	0.116 µM [falling, full curve]	0.116 µM [falling, full curve]
OCC1(Cc2ccccc2)CCN(Cc2cccc(F)c2F)CC1	-13.4	–	0.517 µM [falling, full curve, poor fit]
CC1(C)C(c2cccs2)=[N+]([O-])C2(CCCCC/C2=N\NC(N)=S)N1O (stereo unspecified)	-0.447	–	5.17 µM [rising, partial curve]
O=Cc1c(Sc2ccccc2)nc2ccccn2c1=O	136	20.6 µM [rising, partial curve]	–
CC(=O)Nc1ccc(S(=O)(=O)N(C)CC(=O)NCCC2=CCCCC2)cc1	-14.1	–	–
CCn1nc(C)c(/C=N/NC(=S)Nc2ccc(Cl)cc2Cl)c1C	43.6	1.84 µM [rising, full curve]	0.259 µM [rising, full curve, poor fit]
N#Cc1c(N2CCCCC2)nc(N)c2c(N)nc3c(c12)CC(CCl)O3 (stereo unspecified)	–	0.58 µM [rising, single point]	6.51 µM [rising, single point]
CC(=O)Nc1c2c(nn1-c1ccccc1C)CS(=O)(=O)C2	39.4	29.1 µM [rising, single point]	–
CN(CC(=O)NC1CCN(Cc2ccccc2)CC1)S(=O)(=O)c1ccc(Br)s1	23.4	–	29.1 µM [falling, single point]
COc1ccc(-n2c(=S)[nH]c3c(oc4ccccc43)c2=O)cc1	40.4	25.9 µM [rising, single point]	11.6 µM [rising, partial curve, poor fit]
Cc1ccc(O)c(/C=N/NC(=O)c2[nH]ncc2Br)c1	13.5	–	–
Cc1cc(F)ccc1S(=O)(=O)Nc1ncnc2sccc12	-9.49	0.00461 µM [rising, full curve, poor fit]	–
CC(=O)c1ccc(C(=O)Nc2sc3c(c2C(N)=O)CCN(Cc2ccccc2)C3)cc1	97.4	29.1 µM [rising, partial curve, poor fit]	8.2 µM [falling, partial curve]
O=C(CNS(=O)(=O)c1c(F)cc(F)cc1Br)OCC(=O)N1CCCC1=O	-4.81	–	29.1 µM [rising, single point]
CCCCC1(C(=O)OCC)CC(CN2CCOCC2)OC1=O (stereo unspecified)	-0.431	–	5.17 µM [falling, partial curve]
Cc1nc(Cl)c2oc3ccccc3c2n1	-85.7	4.61 µM [falling, full curve]	3.26 µM [falling, full curve]
O=C(CCN1C(=O)/C(=C/c2cccs2)SC1=S)Nc1ccc(O)cc1	182	25.9 µM [rising, partial curve]	0.116 µM [rising, single point]
COc1cc(OC)cc(C(=O)NCCSc2c[nH]c3ccccc23)c1	-12.7	–	–
CSc1ccc(/C=N/NC(=O)COc2ccc(Br)cc2Cl)cc1	-56.3	14.6 µM [falling, partial curve, poor fit]	1.84 µM [falling, partial curve, poor fit]
O=C1CCC(=O)N1c1ccccc1-c1ccccc1	-10.5	–	23.1 µM [falling, single point]

Four entries from above, with bars between the fields.
SMILES | cell number change [%] | AC50 [1] | AC50 [2]
CC1(C)C(c2cccs2)=[N+]([O-])C2(CCCCC/C2=N\NC(N)=S)N1O (stereo unspecified) | -0.447 | – | 5.17 µM [rising, partial curve]
CCn1nc(C)c(/C=N/NC(=S)Nc2ccc(Cl)cc2Cl)c1C | 43.6 | 1.84 µM [rising, full curve] | 0.259 µM [rising, full curve, poor fit]
O=C(CCN1C(=O)/C(=C/c2cccs2)SC1=S)Nc1ccc(O)cc1 | 182 | 25.9 µM [rising, partial curve] | 0.116 µM [rising, single point]
COc1cc(OC)cc(C(=O)NCCSc2c[nH]c3ccccc23)c1 | -12.7 | – | –

Later entries:

SMILES	cell number change [%]	AC50 [1]	AC50 [2]
CCN(CC)S(=O)(=O)c1ccc(N2CCN(CCOc3ccc(OC)cc3)CC2)nc1	33.9	–	–
COc1cc2c(cc1NC(=O)CSc1nnc(Cc3cccs3)n1C)oc1ccccc12	51.5	9.2 µM [rising, partial curve]	16.4 µM [rising, partial curve, poor fit]
COC(=O)/N=C(/Cc1ccc(OC)cc1)c1ccc(OC)cc1	12.9	–	3.26 µM [rising, single point]
O=C(Cn1cnc2c(oc3ccccc32)c1=O)c1ccccc1	37.2	14.6 µM [rising, partial curve]	–
O=C(COC(=O)c1cnccn1)c1ccc(-c2ccccc2)cc1	2.5	–	–
Cn1c(N)c(C(=O)COC(=O)Cc2ccc(F)cc2)c(=O)n(C)c1=O	97	–	–
Cc1ccc(Cn2c(CN3CC(C)OC(C)C3)nc3c2c(=O)[nH]c(=O)n3C)cc1 (stereo unspecified)	20.9	0.13 µM [rising, full curve, poor fit]	0.146 µM [rising, full curve, poor fit]
CCOc1cc(-c2c(C#N)c(N)nc3c2CCCC3C)ccc1O (stereo unspecified)	-24.1	–	1.84 µM [rising, full curve, poor fit]
O=C(c1cc2ccccc2c(=O)o1)N1CCc2ccccc2C1	19	–	0.0731 µM [rising, full curve, poor fit]
CC(C)NCCOCCOc1ccccc1F	-38	10.3 µM [falling, partial curve, poor fit]	18.4 µM [falling, partial curve]
C/C(CC(=O)Nc1ccc(N(C)C)cc1)=N\NC(=O)c1ccccn1	0.774	–	5.8 µM [falling, partial curve]
CCOC(=O)c1c(NC(=O)CSc2nnnn2C)sc(CC)c1C	17.1	1.03 µM [rising, full curve, poor fit]	–
O=C(Cc1cccs1)N(c1ccc(Br)cc1)C1C=CS(=O)(=O)C1 (stereo unspecified)	-11.3	–	0.517 µM [falling, full curve, poor fit]
CN(C)c1ccc(/C=N\NC(=O)c2csnn2)cc1	13.8	–	–
Cc1ccc(C(=O)Nc2ccc(S(=O)(=O)Nc3ncccn3)cc2)cc1[N+](=O)[O-]	11.1	–	–
O=C(Nc1ccccc1N1CCCCC1)c1ccc(F)cc1	22.3	2.91 µM [rising, single point]	–
O=C(NCCCN1CCCC1)c1ccc(CS(=O)(=O)c2ccc(Br)cc2)o1	2.76	–	–
COC(=O)CSc1nc2c(c(-c3ccc(C)o3)c1C#N)CCCC2	31.6	1.84 µM [rising, full curve]	–
O=C(CCC(=O)OCC(=O)c1ccc([N+](=O)[O-])cc1)NC1CCCCC1	-45.3	0.092 µM [falling, full curve]	–
O=C(Nc1ccc2nn(-c3ccccc3)nc2c1)c1ccco1	-54.7	16.4 µM [falling, partial curve]	18.4 µM [falling, partial curve]

SMILES	cell number change [%]	AC50 [1]	AC50 [2]
CC(C(=O)Nc1cccnc1)c1ccc([N+](=O)[O-])cc1 (stereo unspecified)	–	–	29.1 µM [rising, single point]
COC(=O)C1=C(C)NC(=S)NC1c1ccc(OCC(=O)N2CC(C)OC(C)C2)c(OC)c1 (stereo unspecified)	-2.89	–	–
Cc1ccc(S(=O)(=O)C(C#N)c2nc3ccccc3nc2OCCO)cc1 (stereo unspecified)	-15.6	–	18.4 µM [falling, single point]
Cn1nc(C(=O)NC(C)(C)C)c2ccccc21	9.09	–	20.6 µM [rising, partial curve]
Cc1cc(C)c(C#N)c(OCC(=O)c2ccc(Br)cc2)n1	25.3	–	29.1 µM [rising, partial curve]
O=C(N1CCN(c2ccccn2)CC1)C(Cl)(Cl)Cl	3.5	–	18.4 µM [falling, partial curve, poor fit]
CC1CCCCC1NC(=O)C1CCN(C(=O)NC2CCCCC2)CC1 (stereo unspecified)	-76.9	29.1 µM [falling, single point]	29.1 µM [falling, single point]
O=C(O)c1cccc(Cn2c(Cl)c(/C=N/NC(=O)c3ccc(O)cc3)sc2=O)c1	41.7	18.4 µM [rising, single point]	–
O=C1c2ccc(Br)cc2C(=O)N1c1ccc(Cc2ccncc2)cc1	-42.3	29.1 µM [falling, single point]	32.6 µM [falling, partial curve, poor fit]
Cc1ccc(S(=O)(=O)N2CCC(=O)N(CCOCc3cccc(C(F)(F)F)c3)CC2)cc1	-9.42	–	32.6 µM [rising, single point]
CCN1CCCC1CNCc1cc(OC)c(OC)c(OC)c1 (stereo unspecified)	-49.2	–	0.58 µM [falling, single point]
CC1CCCC(C)N1C(=O)c1cccc2c1-c1ccccc1/C2=N/O (stereo unspecified)	-24	–	29.1 µM [falling, single point]
Cc1cc(=O)oc2cc(OCC(=O)N/N=C/c3ccccc3[N+](=O)[O-])ccc12	-51.9	29.1 µM [falling, single point]	29.1 µM [falling, single point]
Cc1nc2ccccc2c(=O)[nH]1	-12.9	0.461 µM [falling, full curve]	0.651 µM [falling, partial curve, poor fit]
CCOc1cc(/C=C2/C(=N)N3N=C(C)SC3=NC2=O)ccc1OS(=O)(=O)c1ccc(C)cc1	2.52	–	0.291 µM [rising, single point]
CC(c1ccco1)N(C(=O)c1ccc(C(F)(F)F)cc1)c1ccccn1 (stereo unspecified)	-35.4	–	–
CN(Cc1ccccc1)C1=CC(=[N+]2CCCCC2)CC(C)(C)C1	-53.8	7.31 µM [falling, partial curve]	6.51 µM [falling, partial curve]
COc1ccc(-c2cc(C(=O)N3CCN(c4ccccc4)CC3)c3ccccc3n2)cc1OC	19.4	0.092 µM [rising, full curve, poor fit]	3.26 µM [rising, partial curve]
